Common to all, as to experiment: co-IP; 2.5 ug rabbit antibody coupled to protein A/G beads, lysate of 400 mouse oocytes, IP buffer (20 mM Tris-HCl pH 8.0, 10 mM EDTA, 1 mM EGTA, 150 mM NaCl, 0.05% Triton X-100, 0.05% Nonidet P-40), overnight at 4 °C, three washes, SDS-PAGE and western blot; rabbit IgG as control
The target in assay [1] is Notch2 (mouse (endogenous in oocytes)) (UniProt O35516).
Assay [2] deals with p-RICTOR (mouse (endogenous in oocytes)) (UniProt Q6QI06).
Assay [3] addresses Notch2 (mouse (endogenous in oocytes)) (UniProt O35516). This is another data set of the same source.

Sequences of proteins named here, by UniProt entry; tags and fusion partners are left off. Residues count along the entry.
UniProt O35516, residues 26-2473: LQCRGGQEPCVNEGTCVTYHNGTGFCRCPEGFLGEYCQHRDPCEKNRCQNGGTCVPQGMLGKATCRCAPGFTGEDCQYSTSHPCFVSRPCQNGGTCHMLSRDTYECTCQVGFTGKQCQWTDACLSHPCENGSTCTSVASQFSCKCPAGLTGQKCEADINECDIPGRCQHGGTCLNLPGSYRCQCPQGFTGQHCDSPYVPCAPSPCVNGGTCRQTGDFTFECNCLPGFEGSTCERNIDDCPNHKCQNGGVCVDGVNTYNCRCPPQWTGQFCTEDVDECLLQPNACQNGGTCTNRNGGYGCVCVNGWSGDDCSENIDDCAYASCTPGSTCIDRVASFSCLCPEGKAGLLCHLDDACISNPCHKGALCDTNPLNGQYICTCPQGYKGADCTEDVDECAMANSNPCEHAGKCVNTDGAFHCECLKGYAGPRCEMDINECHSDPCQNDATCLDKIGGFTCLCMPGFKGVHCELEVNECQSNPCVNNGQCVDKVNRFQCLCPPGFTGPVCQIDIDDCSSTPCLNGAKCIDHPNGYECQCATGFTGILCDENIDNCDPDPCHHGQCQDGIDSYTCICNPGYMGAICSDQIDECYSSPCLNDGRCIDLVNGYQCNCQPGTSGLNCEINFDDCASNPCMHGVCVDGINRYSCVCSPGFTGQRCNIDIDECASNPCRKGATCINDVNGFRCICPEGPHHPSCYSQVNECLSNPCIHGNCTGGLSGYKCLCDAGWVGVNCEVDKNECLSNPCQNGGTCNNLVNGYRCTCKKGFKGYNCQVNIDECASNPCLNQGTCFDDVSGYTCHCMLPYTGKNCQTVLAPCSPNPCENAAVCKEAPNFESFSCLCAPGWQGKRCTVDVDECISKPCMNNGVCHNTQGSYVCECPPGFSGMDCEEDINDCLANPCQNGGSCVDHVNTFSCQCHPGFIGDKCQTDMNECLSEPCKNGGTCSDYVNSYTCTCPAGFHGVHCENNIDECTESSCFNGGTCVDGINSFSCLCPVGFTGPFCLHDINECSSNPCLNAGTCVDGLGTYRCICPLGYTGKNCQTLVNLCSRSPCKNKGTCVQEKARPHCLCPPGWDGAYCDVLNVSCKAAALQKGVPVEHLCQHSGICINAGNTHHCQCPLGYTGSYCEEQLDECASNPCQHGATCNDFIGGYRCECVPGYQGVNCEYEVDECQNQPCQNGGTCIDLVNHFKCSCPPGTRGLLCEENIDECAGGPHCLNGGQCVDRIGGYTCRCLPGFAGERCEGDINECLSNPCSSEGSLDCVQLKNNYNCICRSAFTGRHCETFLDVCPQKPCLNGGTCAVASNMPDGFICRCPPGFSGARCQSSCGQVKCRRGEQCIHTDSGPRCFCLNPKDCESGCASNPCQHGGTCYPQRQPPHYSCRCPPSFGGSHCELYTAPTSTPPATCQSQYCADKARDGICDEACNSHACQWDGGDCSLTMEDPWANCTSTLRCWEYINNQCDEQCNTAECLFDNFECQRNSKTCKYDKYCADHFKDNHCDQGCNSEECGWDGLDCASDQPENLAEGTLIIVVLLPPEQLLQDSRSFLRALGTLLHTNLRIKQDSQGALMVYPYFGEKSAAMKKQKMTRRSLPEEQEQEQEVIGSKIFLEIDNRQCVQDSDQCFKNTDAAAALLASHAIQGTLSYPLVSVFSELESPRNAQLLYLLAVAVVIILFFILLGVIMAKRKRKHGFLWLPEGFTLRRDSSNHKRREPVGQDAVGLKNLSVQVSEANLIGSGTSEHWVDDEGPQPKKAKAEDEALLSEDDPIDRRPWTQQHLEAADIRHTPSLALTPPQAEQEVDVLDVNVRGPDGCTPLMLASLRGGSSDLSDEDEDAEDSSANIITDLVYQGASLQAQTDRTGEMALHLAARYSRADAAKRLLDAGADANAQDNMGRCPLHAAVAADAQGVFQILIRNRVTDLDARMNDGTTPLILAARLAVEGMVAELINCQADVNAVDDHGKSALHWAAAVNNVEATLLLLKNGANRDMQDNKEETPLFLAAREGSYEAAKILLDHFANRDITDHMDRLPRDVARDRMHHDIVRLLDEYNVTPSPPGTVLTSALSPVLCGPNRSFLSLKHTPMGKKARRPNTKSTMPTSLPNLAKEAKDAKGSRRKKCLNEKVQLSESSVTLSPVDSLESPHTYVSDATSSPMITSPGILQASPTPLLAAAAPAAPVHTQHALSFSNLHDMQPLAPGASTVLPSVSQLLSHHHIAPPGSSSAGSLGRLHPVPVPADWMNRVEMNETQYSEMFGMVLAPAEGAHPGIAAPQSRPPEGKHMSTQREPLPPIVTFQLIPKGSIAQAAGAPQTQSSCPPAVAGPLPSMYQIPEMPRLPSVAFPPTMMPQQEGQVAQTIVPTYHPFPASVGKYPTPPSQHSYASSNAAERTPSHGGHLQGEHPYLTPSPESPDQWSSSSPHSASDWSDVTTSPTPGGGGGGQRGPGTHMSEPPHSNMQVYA
UniProt Q6QI06: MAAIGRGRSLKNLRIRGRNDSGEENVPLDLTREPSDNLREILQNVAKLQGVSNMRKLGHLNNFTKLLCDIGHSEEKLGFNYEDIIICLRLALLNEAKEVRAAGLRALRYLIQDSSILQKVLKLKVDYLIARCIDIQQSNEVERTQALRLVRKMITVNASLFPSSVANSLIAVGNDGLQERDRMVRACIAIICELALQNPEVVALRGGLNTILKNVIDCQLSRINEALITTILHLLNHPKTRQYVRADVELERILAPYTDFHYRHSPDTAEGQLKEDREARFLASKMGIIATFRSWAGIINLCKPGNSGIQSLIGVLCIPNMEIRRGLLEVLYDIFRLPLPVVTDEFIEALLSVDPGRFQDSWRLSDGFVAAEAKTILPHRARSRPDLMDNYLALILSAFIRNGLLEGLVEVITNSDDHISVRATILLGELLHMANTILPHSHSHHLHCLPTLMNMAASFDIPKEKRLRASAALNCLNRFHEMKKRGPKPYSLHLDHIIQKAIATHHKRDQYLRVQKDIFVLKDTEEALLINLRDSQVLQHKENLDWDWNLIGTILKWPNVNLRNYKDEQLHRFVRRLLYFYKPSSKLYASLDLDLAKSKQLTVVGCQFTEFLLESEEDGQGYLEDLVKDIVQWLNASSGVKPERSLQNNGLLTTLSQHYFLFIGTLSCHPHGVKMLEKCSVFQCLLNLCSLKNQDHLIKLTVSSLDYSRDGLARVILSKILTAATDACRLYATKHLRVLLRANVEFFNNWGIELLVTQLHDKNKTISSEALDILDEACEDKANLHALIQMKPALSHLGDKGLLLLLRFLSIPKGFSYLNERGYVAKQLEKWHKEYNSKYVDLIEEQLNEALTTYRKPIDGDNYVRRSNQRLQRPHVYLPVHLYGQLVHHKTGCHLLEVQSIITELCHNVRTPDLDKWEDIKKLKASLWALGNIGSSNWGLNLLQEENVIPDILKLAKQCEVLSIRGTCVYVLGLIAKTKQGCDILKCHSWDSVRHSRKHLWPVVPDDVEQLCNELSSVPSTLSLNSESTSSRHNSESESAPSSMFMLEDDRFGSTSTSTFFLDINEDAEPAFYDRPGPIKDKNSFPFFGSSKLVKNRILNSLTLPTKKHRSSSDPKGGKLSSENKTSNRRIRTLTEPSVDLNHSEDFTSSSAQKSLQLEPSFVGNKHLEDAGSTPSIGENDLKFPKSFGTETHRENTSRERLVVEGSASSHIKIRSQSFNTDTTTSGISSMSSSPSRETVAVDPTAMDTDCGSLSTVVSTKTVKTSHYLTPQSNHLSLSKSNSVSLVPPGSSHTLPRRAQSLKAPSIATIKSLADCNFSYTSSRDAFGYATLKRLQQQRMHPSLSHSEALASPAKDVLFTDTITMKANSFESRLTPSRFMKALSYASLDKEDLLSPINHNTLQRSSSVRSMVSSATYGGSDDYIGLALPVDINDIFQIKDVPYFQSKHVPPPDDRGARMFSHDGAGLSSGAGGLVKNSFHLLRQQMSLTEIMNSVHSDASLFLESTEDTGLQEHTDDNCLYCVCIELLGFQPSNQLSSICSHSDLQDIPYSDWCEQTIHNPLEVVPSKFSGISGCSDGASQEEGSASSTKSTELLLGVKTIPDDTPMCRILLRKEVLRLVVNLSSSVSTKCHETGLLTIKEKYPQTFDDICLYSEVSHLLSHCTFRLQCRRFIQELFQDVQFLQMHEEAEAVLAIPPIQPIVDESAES
UniProt O88516, residues 33-592: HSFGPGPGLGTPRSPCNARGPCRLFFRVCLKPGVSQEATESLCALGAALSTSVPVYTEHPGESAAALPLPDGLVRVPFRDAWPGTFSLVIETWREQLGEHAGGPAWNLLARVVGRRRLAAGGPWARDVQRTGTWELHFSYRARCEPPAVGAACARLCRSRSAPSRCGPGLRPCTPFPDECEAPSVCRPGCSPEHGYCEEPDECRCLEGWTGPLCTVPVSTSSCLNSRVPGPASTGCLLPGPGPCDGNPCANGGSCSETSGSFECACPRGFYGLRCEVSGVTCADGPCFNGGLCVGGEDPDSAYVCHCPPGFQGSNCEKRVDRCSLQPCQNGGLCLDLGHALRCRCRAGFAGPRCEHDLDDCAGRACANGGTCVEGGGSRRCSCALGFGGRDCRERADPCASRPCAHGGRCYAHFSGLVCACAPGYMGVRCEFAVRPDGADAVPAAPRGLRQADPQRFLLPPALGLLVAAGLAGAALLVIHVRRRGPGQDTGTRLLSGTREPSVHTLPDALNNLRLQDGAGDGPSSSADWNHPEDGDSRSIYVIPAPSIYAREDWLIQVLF

Where two headings read alike, the source gives them in different places. No constants are given. Whether binding was seen depends on the method and setting. Binding seen in cells or lysates may run through a third protein. Some entries that bind do so weakly or less than the wild type.

As for “DLL3 (from UniProt O88516 33-592) (ligand)”, the binding result in assay [1] was “binds”. In the case of “Notch2 (from UniProt O35516 26-2473) (receptor)”, the binding entry in assay [2] is “no binding”.

B1: MIB2 (enzyme, UniProt Q8R516 1-973)
chain: MDLDPHAGVQVGMRVVRGMDWKWGQQDGGEGGVGTVVELGRHGSPSTPDRTVVVQWDQGTRTNYRAGYQGAHDLLLYDNAQIGIRHPNIICDCCKKHGLRGMRWKCRVCFDYDLCTQCYMHNKHDLTHAFERYETSHSRPVTLSPRQGLPRIPLRGIFQGAKVVRGPDWEWGSQDGGEGKTGRVVDIRGWDVETGRSVASVTWADGTTNVYRVGHKGKVDLRCVGEAAGGFYYKEHLPKLGKPAELQRRVSADGQPFQRGDKVKCLLDTDVLRDMQEGHGGWNPRMAEFIGQMGTVHRITDRGDVRVQFNHETRWTFHPGALTKHNSFWVGDVVRVIGDLDTVKRLQAGHGEWTDDMAPALGRVGKVVKVFGDGNLRVAVGGQRWTFSPSCLVAYRPEEDANLDVAERARENKSAASVSVAGSLSVALDKLRTQKSDPEHPGRLVVEAALGNVARALDLLRRHPEQASYHPALVVDTKNQGRTALQVAAYLGQVELVRLLLQARASMDLPDDEGNTVLHYTAMGNQPEATRVLLSAGCAVDARNGTRSTALHVAVQRGFLEVVKILCERGCDVNLPDAHADTPLHSAISAGAGASSIVEVLTEVPGIDVTATNSQGFTLLHHASLKGHVLAVRKILARARQLVDAKKEDGFTALHLAALNNHREVAQVLIREGRCDVNVRNRKLQSPLHLAVQQAHLGLVPLLVDAGCSVNTEDEEGDTALHVALQRHQLLPLVADRAGGDPGPLQLLSRLQASGLPGCTELTVGAAVACFLALEGADVSYANHRGRSPLDLATEGRVLKALQGCAQRFRERQAGGGGGVPPGPRHVLSTPNTVTNLHVSGTAGPEAAECLVCSELALLILFSPCQHRTVCEECARRMKKCIRCQVVISKKLRPDGSEVVNAIQVPGPPRQLVEELQSRYRQMEERITCPICIDSHIRLVFQCGHGACAPCGAALNACPICRQPIRDRIQIFV
On to B1, for which the binding entry in assay [3] is recorded as “binds”.

The record behind these values is paper PMC8816931.
